These are yes or no findings as the source states them, for the method shown. Some binding calls cover weakened binding; strength is not graded here.
What was measured:
[1] = target: T1, POT1-TPP1-TIN2(1-354) shelterin sub-complex (UniProt Q9NUX5); experiment: SEC; analytical SEC, Superdex 200 Increase 10/300 GL, 300 mM NaCl, 20 mM Hepes pH 7.5, 1 mM TCEP; 200 pmol POT1-TPP1-TIN2(1-354) combined with 400 pmol TRF2-RAP1, 30 min at 4 °C; each also run alone; both purified
T1 sequence 1: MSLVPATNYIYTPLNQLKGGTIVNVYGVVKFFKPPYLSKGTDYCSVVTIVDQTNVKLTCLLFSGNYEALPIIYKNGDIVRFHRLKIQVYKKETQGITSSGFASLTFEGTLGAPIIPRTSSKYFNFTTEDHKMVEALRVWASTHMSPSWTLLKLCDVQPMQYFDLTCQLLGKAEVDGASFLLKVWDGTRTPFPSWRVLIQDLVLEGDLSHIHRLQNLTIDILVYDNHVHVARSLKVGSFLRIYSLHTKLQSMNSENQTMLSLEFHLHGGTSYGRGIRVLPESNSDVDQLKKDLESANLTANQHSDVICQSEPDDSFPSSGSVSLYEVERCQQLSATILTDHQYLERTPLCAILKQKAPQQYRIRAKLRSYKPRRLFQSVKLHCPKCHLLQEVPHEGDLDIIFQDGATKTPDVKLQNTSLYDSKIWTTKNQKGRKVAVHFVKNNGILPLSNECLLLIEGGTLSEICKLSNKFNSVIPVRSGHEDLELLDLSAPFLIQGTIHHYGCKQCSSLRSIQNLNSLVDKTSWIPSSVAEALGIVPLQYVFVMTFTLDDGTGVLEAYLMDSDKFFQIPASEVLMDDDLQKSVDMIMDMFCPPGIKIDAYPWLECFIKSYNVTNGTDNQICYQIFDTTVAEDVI
T1 sequence 2: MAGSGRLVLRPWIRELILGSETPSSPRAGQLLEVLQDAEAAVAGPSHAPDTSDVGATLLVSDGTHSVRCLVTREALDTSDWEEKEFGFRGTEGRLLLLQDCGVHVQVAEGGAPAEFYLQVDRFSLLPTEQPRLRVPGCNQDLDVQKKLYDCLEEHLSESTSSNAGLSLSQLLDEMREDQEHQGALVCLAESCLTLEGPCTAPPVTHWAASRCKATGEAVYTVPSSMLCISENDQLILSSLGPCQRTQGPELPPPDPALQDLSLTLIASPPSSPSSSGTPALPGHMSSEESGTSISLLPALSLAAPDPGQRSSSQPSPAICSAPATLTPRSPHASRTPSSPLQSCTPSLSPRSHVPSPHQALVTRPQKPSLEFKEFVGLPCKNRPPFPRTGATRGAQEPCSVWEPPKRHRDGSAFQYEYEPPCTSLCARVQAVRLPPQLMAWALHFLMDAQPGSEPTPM
T1 sequence 3: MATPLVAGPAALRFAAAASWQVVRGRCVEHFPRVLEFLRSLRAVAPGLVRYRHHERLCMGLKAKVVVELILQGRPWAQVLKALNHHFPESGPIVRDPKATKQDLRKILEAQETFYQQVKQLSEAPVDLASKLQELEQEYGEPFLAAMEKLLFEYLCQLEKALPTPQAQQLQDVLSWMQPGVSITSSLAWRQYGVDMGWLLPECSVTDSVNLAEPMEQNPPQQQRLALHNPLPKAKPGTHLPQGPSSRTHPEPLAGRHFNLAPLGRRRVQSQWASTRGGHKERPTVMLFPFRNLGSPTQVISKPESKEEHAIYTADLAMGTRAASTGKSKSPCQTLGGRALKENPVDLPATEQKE

Sequences of proteins named here, by UniProt entry; tags and fusion partners are left off. A change or cut given only in a name is not applied to a line headed by its entry.
UniProt Q15554: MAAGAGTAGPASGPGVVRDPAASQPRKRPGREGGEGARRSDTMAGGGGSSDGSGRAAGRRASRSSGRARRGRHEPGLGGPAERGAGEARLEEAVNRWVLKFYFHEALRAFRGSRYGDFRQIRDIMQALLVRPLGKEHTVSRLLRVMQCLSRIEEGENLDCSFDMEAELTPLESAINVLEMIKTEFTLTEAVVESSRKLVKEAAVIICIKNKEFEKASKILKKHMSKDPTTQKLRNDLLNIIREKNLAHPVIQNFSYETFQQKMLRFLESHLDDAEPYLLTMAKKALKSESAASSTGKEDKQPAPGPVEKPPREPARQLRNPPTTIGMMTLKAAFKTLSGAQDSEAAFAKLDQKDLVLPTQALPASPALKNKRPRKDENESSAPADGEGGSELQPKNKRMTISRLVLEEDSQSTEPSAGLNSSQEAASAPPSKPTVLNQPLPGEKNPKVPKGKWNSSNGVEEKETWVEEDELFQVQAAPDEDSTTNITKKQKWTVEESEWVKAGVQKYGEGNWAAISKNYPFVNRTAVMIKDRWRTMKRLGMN

[2] = target: T2, TIN2(1-354), C-terminal truncation variant (UniProt Q9BSI4); experiment: as above
T2 sequence: T1 sequence 3

Substance: TRF2-RAP1 shelterin sub-complex (from UniProt Q15554 1-542; Q9NYB0 1-399)
- binding [1]: binds
- binding [2]: binds

From publication PMC8853558
